According to publication PMC6470423:
These are yes or no findings as the source states them, for the method shown. Binding seen in cells or lysates may run through a third protein. Some entries that bind do so weakly or less than the wild type. For part of these data: Tags and fused reporters may be left off the sequences shown.

Amino acid sequences for entries named in this document (tags omitted).
UniProt P02340: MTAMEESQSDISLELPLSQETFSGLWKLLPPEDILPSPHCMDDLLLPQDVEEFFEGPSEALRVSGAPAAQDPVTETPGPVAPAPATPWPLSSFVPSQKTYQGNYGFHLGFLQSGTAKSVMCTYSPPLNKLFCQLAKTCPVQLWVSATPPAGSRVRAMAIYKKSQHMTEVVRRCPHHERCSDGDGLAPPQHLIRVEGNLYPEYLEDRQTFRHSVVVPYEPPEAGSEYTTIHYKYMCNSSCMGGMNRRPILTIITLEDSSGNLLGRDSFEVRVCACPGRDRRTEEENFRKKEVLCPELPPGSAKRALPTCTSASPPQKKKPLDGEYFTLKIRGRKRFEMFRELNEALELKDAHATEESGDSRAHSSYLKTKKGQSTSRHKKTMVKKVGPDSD

Assays:
[1] = target: Breast cancer susceptibility protein 1 (BRCA1) (mouse (endogenous in NSCs from C57BL/6J embryos)) (UniProt P48754); experiment: co-IP; RIPA lysates (500 ug) of OGD/R-treated NSCs, anti-BRCA1 or anti-p53 or control IgG 12 h at 4°C, protein A/G-agarose beads, immunoblot
[2] = target: GST-BRCA1-1 (aa 15-172, RING finger domain) (mouse) (UniProt P48754); experiment: pull-down; GST-BRCA1 fragments on glutathione-Sepharose 4B beads, total lysates of OGD/R-treated NSCs added for 4 h at 4°C, immunoblot with anti-GST and anti-p53; only the target purified
[3] = target: T1, GST-BRCA1-3 (aa 1591-1784, BRCT domain) (mouse) (UniProt P48754); experiment: as above
T1 sequence: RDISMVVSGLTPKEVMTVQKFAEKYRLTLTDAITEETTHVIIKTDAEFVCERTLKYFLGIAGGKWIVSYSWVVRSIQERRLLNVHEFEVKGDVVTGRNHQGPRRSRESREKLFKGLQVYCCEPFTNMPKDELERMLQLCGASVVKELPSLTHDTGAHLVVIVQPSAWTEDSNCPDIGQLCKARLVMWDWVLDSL

Measured: binding

p53 (from UniProt P02340 1-390)
binds: all assays above
